Measurements as given in US4146622A, “Aziridinyl quinone anti-transplanted tumor agents” (priority 1977, dated 1979).
Some entries share one result that the patent states for a list of compounds.

System: lymphoid leukemia L1210
Assay: Intraperitoneal (IP) lymphoid leukemia L1210 transplanted mouse tumor test
Type: in vivo, murine
Conditions: L1210 system, Q4D and QD1-9 schedules
Excerpt: ^(a) Day 1-9 treatment schedule (9 injections)
^(b) Day 1,5,9 treatment schedule (3 injections)
^(c) Day 1 only treatment schedule (1 injection)
^(f) Percentage increase in life span of treated animals [(treated
survival .div. control survival) × 100%] - 100%

| Compound | antitumor activity |
| --- | --- |
| CCOC=NC1=C(Cl)C(=O)C(N=COCC)=C(Cl)C1=O [Compound 22] | only compound No. 9 was active |
| O=C1C(Br)=C(N2CC2)C(=O)C(Br)=C1N1CC1 [Compound 15] | only compound No. 9 was active |
| CC1CN1C1=C(Cl)C(=O)C(N2CC2C)=C(Cl)C1=O (stereo not drawn) [Compound 2] | only compound No. 9 was active |
| CC1CN1C1=C(Br)C(=O)C(N2CC2C)=C(Br)C1=O (stereo not drawn) [Compound 16] | only compound No. 9 was active |
| CCOC(=O)NC1=C(Cl)C(=O)C(NC(=O)OCC)=C(Cl)C1=O [Compound 8] | only compound No. 9 was active |
| CCSC1=C(SCC)C(=O)C(SCC)=C(SCC)C1=O [Compound 7] | only compound No. 9 was active |
